Several values for one entry are separate records, joined by “and”; a condition that tells them apart may be missing. Equal values may be shown once. Some of the results follow. Shown are side measurements of this screen, not its main read-out; they come without a call. The list favours compounds with an active or inconclusive main result. Potencies come from curve fits of mixed quality, noted in brackets.
Experiment: qHTS Assay for Modulators of Lamin A Splicing
Settings: HeLa LMNA splicing GFP/RFP minigene ratio, 48 h
Method in brief: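 S3 HeLa cells stably expressing lamin A-EGFP splicing minigene plus DsRed2, 600 cells/well, 48 h compound exposure at 37C. Laser-scanning cytometry; analysed as GFP (500-530 nm)/RFP (575-640 nm) total intensity ratio; 0.5% DMSO vehicle.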

[1] = measured here: RFP viability control channel
[2] = measured here: GFP splicing reporter channel

In the case of `Cc1cc(C)cc(NC(=O)c2cc(CN3CCCC3)on2)c1`, the AC50 [1] was 0.00501 µM [falling, full curve, poor fit].

In the case of `CNC(=O)CN1C(=O)NC(Cc2c[nH]c3ccccc23)C1=O` (centres undefined), the AC50 [2] was 3.98 µM [rising, full curve, poor fit] and the AC50 [1] was 3.98 µM [rising, full curve, poor fit].

For `COc1cccc(C(=O)Nc2c3c(nn2-c2cccc(C)c2C)CS(=O)C3)c1OC` (centres undefined), the AC50 [2] was 20 µM [rising, partial curve, poor fit] and the AC50 [1] was 17.8 µM [rising, partial curve].

In the case of `COCCCN1C(=O)c2[nH]nc(-c3ccccc3O)c2C1c1cccc(Cl)c1` (centres undefined), the AC50 [1] was 2.82 µM [rising, full curve].

With `S=C(NCC1CCCO1)NC1CCCC1` (centres undefined) the AC50 [2] was 20 µM [falling, partial curve, poor fit].

With `O=C(NCC(=O)N(Cc1ccccc1)C(C(=O)NC1CCCC1)c1ccncc1)c1ccco1` (centres undefined) the AC50 [1] was 11.2 µM [rising, single point].

In the case of `C/C(=N\NC(=O)NC1CCCCC1)C1CCCCC1`, the AC50 [1] was 25.1 µM [falling, partial curve].

With `O=[N+]([O-])c1cccc(/C=C/c2nc3ccc([N+](=O)[O-])cc3[nH]2)c1` the AC50 [2] was 20 µM [falling, single point] and the AC50 [1] was 25.1 µM [falling, partial curve].

For `C/C=C1/NN(CCCN2CCN(c3cccc(Cl)c3)CC2)C(=O)N1CCOc1ccccc1`, the AC50 [2] was 22.4 µM [falling, single point] and the AC50 [1] was 0.794 µM [falling, single point].

For `CC(NC(=O)Cc1ccccc1)C(c1ccccc1)N1CCOCC1` (centres undefined), the AC50 [2] was 5.01 µM [rising, full curve, poor fit] and the AC50 [1] was 5.01 µM [rising, full curve, poor fit].

With `N=c1n(Cc2ccccc2)c2ccccc2n1CC(O)COc1ccc(Cl)cc1Cl` (centres undefined) the AC50 [2] was 17.8 µM [falling, partial curve] and the AC50 [1] was 11.2 µM [falling, partial curve].

For `CC(N=C(NC#N)Nc1ccncc1)C(C)(C)C` (centres undefined), the AC50 [2] was 12.6 nM [rising, full curve, poor fit] and 8.91 µM [rising, partial curve, poor fit] and the AC50 [1] was 1.26 µM [rising, full curve, poor fit].

With `COc1ccc(NC(=O)CSc2ccc3nc(-c4ccccc4)cn3n2)cc1OC` the AC50 [1] was 35.5 µM [rising, partial curve, poor fit].

In the case of `C/C=C(/C)C(=O)O[C@@H]1[C@H](OC(C)=O)c2c(ccc3ccc(=O)oc23)OC1(C)C`, the AC50 [2] was 0.316 µM [falling, partial curve, poor fit].

For `CCCCCCCNC(=O)c1ccc(N2CCC3(CC2)OCCO3)c([N+](=O)[O-])c1`, the AC50 [2] was 31.6 µM [rising, single point] and the AC50 [1] was 35.5 µM [rising, single point].

With `CC1CCCC(NC(=O)COC(=O)COc2ccccc2Cl)C1C` (centres undefined) the AC50 [2] was 7.08 µM [falling, partial curve, poor fit] and the AC50 [1] was 0.1 µM [falling, full curve].

For `c1ccc(CCNc2ncnc3ccccc23)cc1`, the AC50 [1] was 0.0316 µM [rising, full curve, poor fit].

In the case of `COc1ccc2[nH]c(=O)c(CN(Cc3ccco3)C(=O)c3ccccc3)cc2c1`, the AC50 [2] was 35.5 µM [rising, single point].

For `COc1ccc(C)cc1NC(=O)C(NCC1CCCO1)c1ccccc1` (centres undefined), the AC50 [2] was 0.891 µM [rising, partial curve, poor fit].

With `O=C(NC1=NCCS1)c1cc(-c2cccc(Br)c2)nc2ccccc12` the AC50 [2] was 22.4 µM [rising, single point] and the AC50 [1] was 20 µM [rising, single point].

In the case of `Cc1cc(C)n(CC(C)NC(=O)c2cc(COc3c(F)cccc3F)on2)n1` (centres undefined), the AC50 [2] was 0.0562 µM [falling, full curve, poor fit] and the AC50 [1] was 0.316 µM [falling, full curve, poor fit].

In the case of `OC(c1ccc(OCc2ccccc2)cc1)c1nnc(-c2ccccc2)o1` (centres undefined), the AC50 [1] was 2.82 µM [rising, single point].

With `COc1ccc(CCC(=O)N2CCc3ccccc32)cc1` the AC50 [2] was 10 µM [rising, partial curve, poor fit].

For `S=C(Nc1ccc(Cl)cc1)N1CCN(Cc2ccccc2)CC1`, the AC50 [2] was 8.91 µM [falling, partial curve, poor fit].

With `CSc1nc(C)c(Cc2c(F)cccc2Cl)c(=O)[nH]1` the AC50 [1] was 0.0355 µM [falling, full curve, poor fit].

For `CC(C)Nc1nc(C#N)nc(NC(C)C)n1`, the AC50 [2] was 31.6 µM [rising, single point] and the AC50 [1] was 35.5 µM [rising, single point].

In the case of `COc1ccc(C(=O)NCc2nnc(SCC(=O)N3CCCCC3)o2)cc1`, the AC50 [2] was 10 µM [falling, partial curve] and the AC50 [1] was 11.2 µM [falling, partial curve].

With `Cc1ccc(-c2nc(N=Nc3ccc(O)cc3)n[nH]2)cc1` the AC50 [2] was 35.5 µM [falling, single point] and the AC50 [1] was 2.82 µM [rising, single point].

For `Cn1cc(-c2nc3cnc(Oc4ccccc4)nc3n(C)c2=O)c2ccccc21`, the AC50 [2] was 12.6 µM [falling, single point] and the AC50 [1] was 15.8 µM [falling, single point].

In the case of `O=C(Cc1ccccc1)c1c[nH]c(C(=O)NC2CCCC2)c1`, the AC50 [2] was 6.31 µM [falling, partial curve] and the AC50 [1] was 39.8 µM [falling, partial curve, poor fit].

In the case of `CSc1ccc(CCNC(=O)CCn2c(=O)c3cccn3c3ccc(F)cc32)cc1`, the AC50 [2] was 25.1 µM [rising, partial curve].

For `Cc1ccc(S(=O)(=O)Nc2nc(N)n(-c3ccccc3)n2)cc1`, the AC50 [1] was 0.158 µM [falling, full curve, poor fit].

With `CC(CN(C)C)C(C)(O)Cc1ccc(Cl)cc1` (centres undefined) the AC50 [2] was 0.00794 µM [falling, full curve, poor fit] and the AC50 [1] was 35.5 µM [falling, single point].

For `c1ccc2c(c1)CCCC2NC1=NCCC1` (centres undefined), the AC50 [2] was 15.8 µM [rising, partial curve] and the AC50 [1] was 11.2 µM [rising, partial curve, poor fit].

With `Cc1c(C(=O)O)sc(=S)n1CCOc1ccccc1` the AC50 [2] was 17.8 µM [rising, single point] and the AC50 [1] was 22.4 µM [rising, single point].

For `Cc1noc(C)c1C(=O)N1CCCC(C(=O)c2ccc(Cl)cc2)C1` (centres undefined), the AC50 [1] was 0.398 µM [falling, full curve, poor fit].

With `O=C(Nc1cccc(Cl)c1Cl)C1CC(=O)N(c2ccc(Br)cc2)C1` (centres undefined) the AC50 [2] was 3.55 µM [rising, full curve] and the AC50 [1] was 3.55 µM [rising, full curve].

With `O=C(CN1CCC(C(=O)c2ccc3c(c2)OCCO3)CC1)NC1CCCC1` the AC50 [2] was 17.8 µM [rising, partial curve] and the AC50 [1] was 22.4 µM [rising, single point].

In the case of `Cc1ccccc1Nc1nn2c(=O)c3ccccc3nc2s1`, the AC50 [1] was 15.8 µM [rising, single point].

In the case of `CCOC(=O)N1CCN(c2ccc([N+](=O)[O-])cc2F)CC1C` (centres undefined), the AC50 [2] was 5.01 µM [rising, single point] and the AC50 [1] was 15.8 µM [rising, single point].

For `Cc1cc(C)cc(NC(=S)Nc2ccc(Cl)c(Cl)c2)c1`, the AC50 [1] was 0.0178 µM [rising, full curve, poor fit].

For `O=C(/C=C/c1cccc(C(F)(F)F)c1)Nc1cccc(C(F)(F)F)c1`, the AC50 [1] was 22.4 µM [rising, single point].

In the case of `COc1ccc2[nH]cc(CCNc3cc(-c4ccccc4Cl)ncn3)c2c1`, the AC50 [2] was 12.6 µM [falling, single point] and the AC50 [1] was 35.5 µM [falling, single point].

In the case of `Clc1cccc(-c2nc(NCCN3CCOCC3)c3ccccc3n2)c1`, the AC50 [1] was 12.6 µM [rising, single point].

For `CC(C)c1ccc(OCC(O)CN2CCN(c3ccccc3)CC2)cc1` (centres undefined), the AC50 [1] was 35.5 µM [rising, single point].

For `CC(C)(C)c1ccc(CN(Cc2ccco2)Cc2nnnn2C2CCCC2)cc1`, the AC50 [1] was 35.5 µM [falling, single point].

In the case of `Cc1noc(C)c1COc1ccc(CC(=O)NC2CCCCCC2)cc1`, the AC50 [2] was 0.02 µM [falling, full curve, poor fit] and the AC50 [1] was 11.2 µM [falling, partial curve, poor fit].

In the case of `Cc1nc(NCC2CCCO2)c2nnn(Cc3c(F)cccc3Cl)c2n1` (centres undefined), the AC50 [1] was 35.5 µM [falling, single point].

In the case of `CC1(C)CC(=O)c2cc(OCC(=O)NCCCN3CCN(c4ccc(F)cc4)CC3)ccc2O1`, the AC50 [2] was 12.6 µM [rising, partial curve, poor fit] and the AC50 [1] was 17.8 µM [rising, partial curve].

In the case of `COc1ccc(C(=O)NC(=S)NNC(=O)Cc2cccs2)cc1`, the AC50 [1] was 35.5 µM [rising, single point].

For `CC(=O)NCCn1c(SCC#N)nc2ccccc2c1=O`, the AC50 [1] was 0.355 µM [falling, full curve, poor fit].

In the case of `COc1ccc(C2CC(C)(c3ccc(OC)cc3OC)Nc3ccccc3N2)c(OC)c1` (centres undefined), the AC50 [2] was 2 µM [rising, partial curve].

In the case of `S=C(NCc1ccccc1)NCc1cccc(CNC(=S)NCc2ccccc2)c1`, the AC50 [2] was 15.8 µM [rising, single point] and the AC50 [1] was 35.5 µM [rising, single point].
